Source: US8933133B2, “Animal feeds containing polyols” (ADM Alliance Nutrition, Inc., priority 2006, dated 2015)

System: rumen fluid
Experiment: In vitro fermentation of polyols in an artificial rumen environment using rumen fluid as inoculum
Details: for Acetate / Acetate, % VFA / NH3 / Propionate / Propionate, % VFA / Tot Butyrate, % VFA / pH: after 24 hours in vitro rumen fermentation; for pH: 0.3 grams per bottle, 30 mL total fluid, 20% rumen fluid; for Total VFA / Total Butyrate: after 24 hours; for Total VFA: Total VFA = acetate + propionate + butyrate; for Total Butyrate: total butyrate = n-butyrate + isobutyrate
Protocol: Fermentations were performed on two separate days where gas production was monitored every 30 minutes. In addition, pH, ammonia (NH3), and volatile fatty acid (“VFA”) production were measured after 24 hours. Duplicate samples of each compound were evaluated using in vitro rumen fermentations.
Duplicate samples of these compounds were fermented in vitro using rumen fluid as inoculum. Samples were weighed into 150 mL serum bottles (0.3 grams per bottle) using a CO2 atmosphere to provide an anaerobic environment. A standard buffered media was prepared (no additional feed matter was included in the fermentation), degassed, and added to the serum bottles (see, Goering, H. K., and P. J. Van Soest, “Forage Fiber Analyses (Apparatus, Reagents, Procedures, and Some Applications),” Agric. Handbook, No 379, ARS-USDA, Washington, D.C., 1970). Rumen fluid was obtained from a dairy cow, filtered, and added to the serum bottles as 20% of the total fluid addition (30 mL total fluid volume). The serum bottles were sealed, placed in an incubator, and the fermentation was allowed to proceed. Fermentations were performed on two separate days, during which time gas production was monitored every 30 minutes and pH, NH3, and VFA production measured after 24 hours.

Row | SMILES | Acetate | Acetate, % VFA | NH3 | Propionate | Propionate, % VFA | Tot Butyrate, % VFA | pH | Total VFA | Total Butyrate
1 | OCC(O)CO [Glycerol, glycerol] | 3.1 mM | 6.5 % VFA | 37.2 mg/dL | 36.9 mM | 77.7 % VFA | 18.5 % VFA | 6.12 | 47.5 mM | 8.8 mM
2 | OC[C@@H](O)[C@H]1OC[C@H](O)[C@H]1O [Sorbitan, 1,4-anhydro-D-sorbitol] | 4.0 mM | 50.0 % VFA | 59.1 mg/dL | 1.2 mM | 15.0 % VFA | 46.3 % VFA | 6.65 | 8.0 mM | 3.7 mM
3 | OC[C@@H](O)[C@@H](O)[C@H](O)[C@@H](O)CO [Sorbitol, sorbitol] | 18.2 mM | 40.3 % VFA | 30.2 mg/dL | 10.5 mM | 23.2 % VFA | 39.4 % VFA | 6.00 | 45.2 mM | 17.8 mM
